Assay results as given in publication PMC5606929.
No constants are given. Whether binding was seen depends on the method and setting. Where a sequence is shown, tags or fusion partners need not be part of it.

Target: transmembrane domain of CD4 coupled to Cub ('artificial bait') (human)
Assay: two-hybrid; Membrane Yeast Two-Hybrid (MYTH), S. cerevisiae NMY51 (HIS3/ADE2/LacZ); Cub-tagged bait, NubG-tagged prey; colony growth on interaction selective media (SD-WLAH) containing X-Gal; confirmed by back transformation

- binding: no binding
B1: NEDD4 family interacting protein 2 (NDFIP2) clone from the MYTH screening, amino acids 203-336, NubG-tagged (domain or fragment, UniProt Q9NV92 203-336)
chain: ETSQRIQEEECPPRDDFSDADQLRVGNDGIFMLAFFMAFIFNWLGFCLSFCITNTIAGRYGAICGFGLSLIKWILIVRFSDYFTGYFNGQYWLWWIFLVLGLLLFFRGFVNYLKVRNMSESMAAAHRTRYFFLL
